In the experiment the target is prostate specific membrane antigen (PSMA), full-length, on the cell surface (human) (UniProt Q04609). The experiment can be described thus: flow cytometry, 3T3-PSMA against 3T3 cells.

Sequences of proteins named here, by UniProt entry; tags and fusion partners are left off. A change or cut given only in a name is not applied to a line headed by its entry.
UniProt Q04609: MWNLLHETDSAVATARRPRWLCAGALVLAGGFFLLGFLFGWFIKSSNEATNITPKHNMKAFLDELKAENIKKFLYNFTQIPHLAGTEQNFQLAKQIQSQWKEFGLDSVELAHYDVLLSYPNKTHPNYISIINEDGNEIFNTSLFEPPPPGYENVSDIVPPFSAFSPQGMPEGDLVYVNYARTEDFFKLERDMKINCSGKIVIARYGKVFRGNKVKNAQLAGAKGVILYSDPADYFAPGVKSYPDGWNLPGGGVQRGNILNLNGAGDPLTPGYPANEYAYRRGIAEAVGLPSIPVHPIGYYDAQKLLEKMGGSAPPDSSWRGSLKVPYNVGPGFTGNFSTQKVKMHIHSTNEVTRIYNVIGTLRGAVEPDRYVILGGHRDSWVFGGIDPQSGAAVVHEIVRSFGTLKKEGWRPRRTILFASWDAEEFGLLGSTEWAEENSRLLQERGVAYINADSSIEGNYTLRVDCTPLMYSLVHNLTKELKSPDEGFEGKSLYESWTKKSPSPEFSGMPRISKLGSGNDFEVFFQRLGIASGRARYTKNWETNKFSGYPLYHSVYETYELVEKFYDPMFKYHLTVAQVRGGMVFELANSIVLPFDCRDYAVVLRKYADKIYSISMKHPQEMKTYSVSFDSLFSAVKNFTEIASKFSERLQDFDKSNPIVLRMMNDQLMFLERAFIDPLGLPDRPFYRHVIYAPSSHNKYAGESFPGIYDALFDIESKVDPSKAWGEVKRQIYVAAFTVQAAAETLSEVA

No constants are given. Whether binding was seen depends on the method and setting. Some results given as binding are weak or reduced against the parent protein; the word gives no strength.

B1: AB-PG1-XG1-051 (antibody, IgG1, V domains shown)
VH: QVQLVESGGGVVQPGRSLRLSCAASGFTFSSYGMHWVRQAPGKGLDWVAIIWHDGSNKYYADSVKGRFTISRDNSKKTLYLQMNSLRAEDTAVYYCARAWAYDYGDYEYYFGMDVWGQGTTVTVSS
VL: DIQMTQSPSSLSASVGDRVTITCRASQGISHYLAWFQQKPGKAPKSLIYAASSLQSGVPSKFSGSGSGTDFTLTISSLQPEDFATYYCQQYNSFPLTFGGGTKVEIK
For B1, the binding result is reported as “binds”.
